PMC10480535
Results are given in words; binding and its absence hold for the method and conditions named. Binding seen in cells or lysates may run through a third protein. Here binding means that the protein was enriched with, or labelled near, the bait; the list need not be complete. Tags and fused reporters may be left off the sequences shown.

By UniProt entry, the sequences of proteins in these tests, tags left out.
UniProt Q9Y2H1: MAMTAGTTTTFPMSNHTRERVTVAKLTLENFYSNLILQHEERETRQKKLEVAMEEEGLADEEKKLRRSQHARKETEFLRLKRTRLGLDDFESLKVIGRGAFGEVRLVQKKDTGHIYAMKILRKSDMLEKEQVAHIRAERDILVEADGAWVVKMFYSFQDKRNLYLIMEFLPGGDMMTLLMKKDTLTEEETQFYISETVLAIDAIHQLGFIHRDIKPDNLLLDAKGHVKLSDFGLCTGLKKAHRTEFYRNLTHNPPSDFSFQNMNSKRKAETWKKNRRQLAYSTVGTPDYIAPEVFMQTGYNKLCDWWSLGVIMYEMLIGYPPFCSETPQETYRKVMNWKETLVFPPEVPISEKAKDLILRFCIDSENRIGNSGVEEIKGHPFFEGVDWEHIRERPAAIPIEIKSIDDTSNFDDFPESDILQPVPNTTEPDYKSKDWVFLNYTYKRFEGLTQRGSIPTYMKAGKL
UniProt Q96HP0: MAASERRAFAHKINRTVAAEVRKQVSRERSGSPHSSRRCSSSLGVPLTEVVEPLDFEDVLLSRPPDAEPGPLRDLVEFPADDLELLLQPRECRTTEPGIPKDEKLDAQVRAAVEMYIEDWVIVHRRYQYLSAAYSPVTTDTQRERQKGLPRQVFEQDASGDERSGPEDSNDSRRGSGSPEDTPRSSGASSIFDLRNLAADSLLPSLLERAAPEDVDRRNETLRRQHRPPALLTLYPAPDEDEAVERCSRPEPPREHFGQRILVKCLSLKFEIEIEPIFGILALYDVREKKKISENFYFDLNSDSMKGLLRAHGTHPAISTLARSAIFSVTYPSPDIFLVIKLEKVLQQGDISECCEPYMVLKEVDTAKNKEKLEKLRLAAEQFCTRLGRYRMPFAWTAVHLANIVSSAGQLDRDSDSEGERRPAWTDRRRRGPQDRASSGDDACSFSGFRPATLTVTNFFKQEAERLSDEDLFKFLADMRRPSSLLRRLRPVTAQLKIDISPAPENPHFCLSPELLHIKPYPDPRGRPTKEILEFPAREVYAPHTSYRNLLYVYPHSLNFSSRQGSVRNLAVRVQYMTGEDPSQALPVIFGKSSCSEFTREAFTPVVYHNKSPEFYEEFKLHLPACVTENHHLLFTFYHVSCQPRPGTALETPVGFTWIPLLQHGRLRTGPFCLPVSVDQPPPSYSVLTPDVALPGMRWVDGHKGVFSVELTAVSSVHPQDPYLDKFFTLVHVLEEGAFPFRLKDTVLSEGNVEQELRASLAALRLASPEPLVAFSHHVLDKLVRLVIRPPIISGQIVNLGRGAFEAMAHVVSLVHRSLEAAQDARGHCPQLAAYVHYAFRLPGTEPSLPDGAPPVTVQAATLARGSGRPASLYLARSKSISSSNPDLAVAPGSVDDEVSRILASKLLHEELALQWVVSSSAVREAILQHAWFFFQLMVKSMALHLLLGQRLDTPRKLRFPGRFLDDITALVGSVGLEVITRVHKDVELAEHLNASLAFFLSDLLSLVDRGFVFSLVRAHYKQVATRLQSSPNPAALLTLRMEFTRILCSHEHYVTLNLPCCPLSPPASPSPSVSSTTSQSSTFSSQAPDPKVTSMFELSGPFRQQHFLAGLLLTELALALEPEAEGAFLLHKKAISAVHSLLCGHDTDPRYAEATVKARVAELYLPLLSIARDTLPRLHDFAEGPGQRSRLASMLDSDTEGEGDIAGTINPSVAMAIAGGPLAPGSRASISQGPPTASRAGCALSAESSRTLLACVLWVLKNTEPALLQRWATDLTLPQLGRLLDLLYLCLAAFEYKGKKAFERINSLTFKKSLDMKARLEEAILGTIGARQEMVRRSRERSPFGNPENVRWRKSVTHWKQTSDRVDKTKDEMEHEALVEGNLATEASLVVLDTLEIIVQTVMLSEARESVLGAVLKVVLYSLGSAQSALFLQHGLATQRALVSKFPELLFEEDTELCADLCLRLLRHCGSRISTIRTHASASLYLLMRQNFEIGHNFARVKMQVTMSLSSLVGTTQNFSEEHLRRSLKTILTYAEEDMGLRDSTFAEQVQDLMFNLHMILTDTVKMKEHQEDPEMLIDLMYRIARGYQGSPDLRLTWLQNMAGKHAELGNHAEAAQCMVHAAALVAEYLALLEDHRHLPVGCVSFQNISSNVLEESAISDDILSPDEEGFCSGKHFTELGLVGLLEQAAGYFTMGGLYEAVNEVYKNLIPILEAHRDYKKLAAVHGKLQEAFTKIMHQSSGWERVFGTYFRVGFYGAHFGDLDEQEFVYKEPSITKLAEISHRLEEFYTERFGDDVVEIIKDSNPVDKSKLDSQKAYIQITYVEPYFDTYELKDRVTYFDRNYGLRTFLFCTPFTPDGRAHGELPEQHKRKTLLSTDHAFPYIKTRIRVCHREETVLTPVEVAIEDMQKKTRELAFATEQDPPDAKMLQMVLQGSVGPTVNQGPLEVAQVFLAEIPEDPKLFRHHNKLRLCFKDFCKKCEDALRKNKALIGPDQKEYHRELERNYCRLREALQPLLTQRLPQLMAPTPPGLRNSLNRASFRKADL
UniProt O60934: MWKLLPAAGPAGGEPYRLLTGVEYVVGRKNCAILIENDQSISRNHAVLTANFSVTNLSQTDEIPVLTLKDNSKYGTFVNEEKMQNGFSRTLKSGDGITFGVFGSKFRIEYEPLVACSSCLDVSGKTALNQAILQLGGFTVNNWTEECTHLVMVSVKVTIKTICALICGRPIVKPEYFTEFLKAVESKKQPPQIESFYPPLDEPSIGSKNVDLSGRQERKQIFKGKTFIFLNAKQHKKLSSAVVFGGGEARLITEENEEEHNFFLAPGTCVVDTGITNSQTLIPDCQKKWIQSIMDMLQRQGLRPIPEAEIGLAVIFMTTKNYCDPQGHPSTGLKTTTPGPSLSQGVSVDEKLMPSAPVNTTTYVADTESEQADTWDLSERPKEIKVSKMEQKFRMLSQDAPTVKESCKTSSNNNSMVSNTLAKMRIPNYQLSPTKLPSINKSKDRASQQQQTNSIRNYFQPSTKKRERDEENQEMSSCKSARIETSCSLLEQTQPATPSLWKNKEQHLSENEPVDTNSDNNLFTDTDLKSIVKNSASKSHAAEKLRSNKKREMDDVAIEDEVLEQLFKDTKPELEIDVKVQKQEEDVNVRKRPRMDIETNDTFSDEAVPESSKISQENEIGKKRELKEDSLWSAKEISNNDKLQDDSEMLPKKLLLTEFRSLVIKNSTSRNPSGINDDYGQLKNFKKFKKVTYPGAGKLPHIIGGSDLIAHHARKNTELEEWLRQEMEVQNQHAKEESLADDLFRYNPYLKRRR
UniProt Q8NF50: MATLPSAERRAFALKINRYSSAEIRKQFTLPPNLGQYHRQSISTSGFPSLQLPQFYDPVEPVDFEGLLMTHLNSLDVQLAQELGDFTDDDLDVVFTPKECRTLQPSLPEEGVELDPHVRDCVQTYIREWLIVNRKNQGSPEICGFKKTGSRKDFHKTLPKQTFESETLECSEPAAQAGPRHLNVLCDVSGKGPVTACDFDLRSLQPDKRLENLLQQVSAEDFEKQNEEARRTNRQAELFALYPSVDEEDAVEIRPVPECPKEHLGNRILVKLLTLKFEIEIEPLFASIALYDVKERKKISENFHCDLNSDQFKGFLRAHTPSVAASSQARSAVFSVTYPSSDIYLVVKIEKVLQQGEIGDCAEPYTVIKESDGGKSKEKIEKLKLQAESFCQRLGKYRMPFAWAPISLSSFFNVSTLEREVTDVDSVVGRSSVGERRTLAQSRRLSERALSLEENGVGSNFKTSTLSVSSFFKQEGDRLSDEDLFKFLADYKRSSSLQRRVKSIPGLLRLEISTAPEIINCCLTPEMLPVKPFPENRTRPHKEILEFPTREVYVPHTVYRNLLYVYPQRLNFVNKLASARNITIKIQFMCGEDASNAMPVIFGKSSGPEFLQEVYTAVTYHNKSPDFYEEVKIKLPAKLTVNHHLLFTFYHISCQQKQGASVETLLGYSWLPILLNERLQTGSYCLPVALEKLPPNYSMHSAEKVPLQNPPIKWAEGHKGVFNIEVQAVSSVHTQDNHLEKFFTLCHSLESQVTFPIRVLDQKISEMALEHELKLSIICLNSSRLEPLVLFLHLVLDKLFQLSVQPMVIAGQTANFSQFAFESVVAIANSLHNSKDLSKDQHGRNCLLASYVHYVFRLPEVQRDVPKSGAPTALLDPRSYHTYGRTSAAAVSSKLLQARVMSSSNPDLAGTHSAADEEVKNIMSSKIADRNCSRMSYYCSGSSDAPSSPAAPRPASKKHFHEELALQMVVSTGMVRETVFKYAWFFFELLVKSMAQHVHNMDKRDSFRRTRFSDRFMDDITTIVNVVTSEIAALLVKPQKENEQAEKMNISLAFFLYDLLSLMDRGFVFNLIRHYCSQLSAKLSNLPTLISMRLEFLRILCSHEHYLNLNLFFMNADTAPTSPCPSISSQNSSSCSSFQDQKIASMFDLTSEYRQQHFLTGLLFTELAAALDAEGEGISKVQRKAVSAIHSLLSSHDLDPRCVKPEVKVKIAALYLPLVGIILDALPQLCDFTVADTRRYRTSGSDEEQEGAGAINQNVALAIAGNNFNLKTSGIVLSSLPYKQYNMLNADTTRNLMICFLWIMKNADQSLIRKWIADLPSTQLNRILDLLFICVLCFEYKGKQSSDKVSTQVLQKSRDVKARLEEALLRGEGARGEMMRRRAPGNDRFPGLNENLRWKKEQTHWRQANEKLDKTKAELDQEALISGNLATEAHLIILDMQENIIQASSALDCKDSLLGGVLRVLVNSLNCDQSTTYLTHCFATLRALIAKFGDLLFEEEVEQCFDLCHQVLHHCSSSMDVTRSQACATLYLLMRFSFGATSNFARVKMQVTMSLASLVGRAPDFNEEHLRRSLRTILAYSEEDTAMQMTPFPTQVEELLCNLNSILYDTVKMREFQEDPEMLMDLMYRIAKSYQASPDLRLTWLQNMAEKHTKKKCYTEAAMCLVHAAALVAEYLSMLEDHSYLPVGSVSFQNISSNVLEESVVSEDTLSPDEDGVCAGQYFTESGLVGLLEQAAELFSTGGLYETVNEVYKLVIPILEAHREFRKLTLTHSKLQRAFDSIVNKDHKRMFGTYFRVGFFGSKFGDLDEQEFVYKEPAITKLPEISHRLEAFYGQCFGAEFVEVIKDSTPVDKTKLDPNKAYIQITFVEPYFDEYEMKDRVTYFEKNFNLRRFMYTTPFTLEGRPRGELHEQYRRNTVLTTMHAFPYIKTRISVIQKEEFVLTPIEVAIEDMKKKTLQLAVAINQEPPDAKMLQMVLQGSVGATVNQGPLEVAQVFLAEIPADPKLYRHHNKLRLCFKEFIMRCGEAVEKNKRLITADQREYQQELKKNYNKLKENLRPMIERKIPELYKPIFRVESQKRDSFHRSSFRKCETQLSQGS

Assays:
Assay in all cases: proximity labelling; BioID: BirA*-FLAG-MOB baits in tetracycline-inducible HEK293 and HeLa Flp-In T-REx cells; tetracycline 1 ug/ml and biotin 50 uM for 24 h; mass spectrometry; SAINTexpress against BirA*-FLAG and BirA*-FLAG-EGFP controls, BFDR <=0.01; the two cell lines' datasets combined for the MoSS score
[1] = target: T1, BirA*-FLAG-MOB2 (human) (UniProt Q70IA6)
T1 sequence: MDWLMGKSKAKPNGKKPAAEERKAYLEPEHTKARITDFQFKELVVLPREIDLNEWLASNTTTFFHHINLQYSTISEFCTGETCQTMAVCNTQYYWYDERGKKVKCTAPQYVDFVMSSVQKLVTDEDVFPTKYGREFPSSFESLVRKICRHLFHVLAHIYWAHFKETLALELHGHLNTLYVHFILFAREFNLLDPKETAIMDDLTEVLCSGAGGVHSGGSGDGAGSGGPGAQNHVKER

[2] = target: T2, BirA*-FLAG-MOB1B (human) (UniProt Q7L9L4)
T2 sequence: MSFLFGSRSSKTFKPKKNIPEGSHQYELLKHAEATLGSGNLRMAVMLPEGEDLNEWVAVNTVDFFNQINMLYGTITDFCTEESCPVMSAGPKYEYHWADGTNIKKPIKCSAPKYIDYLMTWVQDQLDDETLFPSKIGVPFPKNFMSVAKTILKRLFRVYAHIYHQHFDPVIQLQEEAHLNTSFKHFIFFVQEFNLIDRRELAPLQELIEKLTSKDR

[3] = target: T3, BirA*-FLAG-MOB1A (human) (UniProt Q9H8S9)
T3 sequence: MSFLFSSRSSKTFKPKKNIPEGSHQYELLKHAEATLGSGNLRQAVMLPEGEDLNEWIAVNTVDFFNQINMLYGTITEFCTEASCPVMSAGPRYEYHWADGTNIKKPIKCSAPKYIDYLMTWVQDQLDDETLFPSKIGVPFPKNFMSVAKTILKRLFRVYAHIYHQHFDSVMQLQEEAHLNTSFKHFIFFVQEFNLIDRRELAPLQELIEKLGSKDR

Q: Which binding [1] does the source give for RAD50 (from UniProt Q92878 1-1312) here?
A: binds

Q: With STK38L (from UniProt Q9Y2H1 1-464) as the molecule, how does the binding [1] read?
A: binds

Q: DOCK6 (from UniProt Q96HP0 1-2047) was tested. Which binding [2] did it give?
A: binds

Q: What about the binding [3] of the same molecule?
A: binds

Q: With NBN (from UniProt O60934 1-754) as the molecule, how does the binding [1] read?
A: binds

Q: Which results are given for DOCK8 (from UniProt Q8NF50 1-2099)?
A: binding [2]: binds; binding [3]: binds

Q: For “valosin-containing protein (from UniProt P55072 1-806)”, which binding [1] is on record?
A: binds

B1: LRCH1 (protein, UniProt Q9Y2L9 1-728)
chain: MATPGSEPQPFVPALSVATLHPLHHPHHHHHHHQHHGGTGAPGGAGGGGGGSGGFNLPLNRGLERALEEAANSGGLNLSARKLKEFPRTAAPGHDLSDTVQADLSKNRLVEVPMELCHFVSLEILNLYHNCIRVIPEAIVNLQMLTYLNLSRNQLSALPACLCGLPLKVLIASNNKLGSLPEEIGQLKQLMELDVSCNEITALPQQIGQLKSLRELNVRRNYLKVLPQELVDLSLVKFDFSCNKVLVIPICFREMKQLQVLLLENNPLQSPPAQICTKGKVHIFKYLSIQACQIKTADSLYLHTMERPHLHQHVEDGKKDSDSGVGSDNGDKRLSATEPSDEDTVSLNVPMSNIMEEEQIIKEDSCHRLSPVKGEFHQEFQPEPSLLGDSTNSGEERDQFTDRADGLHSEFMNYKARAEDCEELLRIEEDVHWQTEGIISSSKDQDMDIAMIEQLREAVDLLQDPNGLSTDITERSVLNLYPMGSAEALELQDSALNGQIQLETSPVCEVQSDLTLQSNGSQYSPNEIRENSPAVSPTTNSTAPFGLKPRSVFLRPQRNLESIDPQFTIRRKMEQMREEKELVEQLRESIEMRLKVSLHEDLGAALMDGVVLCHLVNHIRPRSVASIHVPSPAVPKLSMAKCRRNVENFLEACRKLGVPEADLCSPCDILQLDFRHIRKTVDTLLALGEKAPPPTSALRSRDLIGFCLVHILFIVLVYITYHWNALSA
Q: Which binding [2] does the source give for B1 here?
A: binds

Q: What about the binding [3] of the same molecule?
A: binds

B2: LRCH2 (protein, UniProt Q5VUJ6 1-765)
chain: MAASQGGGGNSGGGGCGGGGSSGGCGTAGGGGGGAGGGGGGGGGTLVVPIPVPTLFGQPFPNGPPWNPGSLQPQHTVRSLDRALEEAGSSGILSLSGRKLRDFPGSGYDLTDTTQADLSRNRFTEIPSDVWLFAPLETLNLYHNCIKTIPEAIKNLQMLTYLNISRNLLSTLPKYLFDLPLKVLVVSNNKLVSIPEEIGKLKDLMELDISCNEIQVLPQQMGKLHSLRELNIRRNNLHVLPDELGDLPLVKLDFSCNKVTEIPVCYRKLHHLQVIILDNNPLQVPPAQICLKGKVHIFKYLNIQACCRMDKKPDSLDLPSLSKRMPSQPLTDSMEDFYPNKNHGPDSGIGSDNGEKRLSTTEPSDDDTVSLHSQVSESNREQTSRNDSHIIGSKTDSQKDQEVYDFVDPNTEDVAVPEQGNAHIGSFVSFFKGKEKCSEKSRKNEELGDEKRLEKEQLLAEEEDDDLKEVTDLRKIAAQLLQQEQKNRILNHSTSVMRNKPKQTVECEKSVSADEVNSPLSPLTWQPLENQKDQIDEQPWPESHPIIWQSEERRRSKQIRKEYFKYKSMRKSSSGNENDEQDSDNANMSTQSPVSSEEYDRTDGFSHSPFGLKPRSAFSRSSRQEYGAADPGFTMRRKMEHLREEREQIRQLRNNLESRLKVILPDDIGAALMDGVVLCHLANHIRPRSVASIHVPSPAVPKLSMAKCRRNVENFLDACKKLGVSQERLCLPHHILEERGLVKVGVTVQALLELPTTKASQLSVA
Q: For B2, which binding [2] is on record?
A: binds

Q: What about the binding [3] of the same molecule?
A: binds

B3: LRCH3 (protein, UniProt Q96II8 1-777)
chain: MAAAGLVAVAAAAEYSGTVASGGNLPGVHCGPSSGAGPGFGPGSWSRSLDRALEEAAVTGVLSLSGRKLREFPRGAANHDLTDTTRADLSRNRLSEIPIEACHFVSLENLNLYQNCIRYIPEAILNLQALTFLNISRNQLSTLPVHLCNLPLKVLIASNNKLVSLPEEIGHLRHLMELDVSCNEIQTIPSQIGNLEALRDLNVRRNHLVHLPEELAELPLIRLDFSCNKITTIPVCYRNLRHLQTITLDNNPLQSPPAQICIKGKVHIFKYLNIQACKIAPDLPDYDRRPLGFGSCHEELYSSRPYGALDSGFNSVDSGDKRWSGNEPTDEFSDLPLRVAEITKEQRLRRESQYQENRGSLVVTNGGVEHDLDQIDYIDSCTAEEEEAEVRQPKGPDPDSLSSQFMAYIEQRRISHEGSPVKPVAIREFQKTEDMRRYLHQNRVPAEPSSLLSLSASHNQLSHTDLELHQRREQLVERTRREAQLAALQYEEEKIRTKQIQRDAVLDFVKQKASQSPQKQHPLLDGVDGECPFPSRRSQHTDDSALCMSLSGLNQVGCAATLPHSSAFTPLKSDDRPNALLSSPATETVHHSPAYSFPAAIQRNQPQRPESFLFRAGVRAETNKGHASPLPPSAAPTTDSTDSITGQNSRQREEELELIDQLRKHIEYRLKVSLPCDLGAALTDGVVLCHLANHVRPRSVPSIHVPSPAVPKLTMAKCRRNVENFLEACRKIGVPQEQLCLPLHILEEKGLSQVAVTVQALLELAPPKQQQHQLSAV
Q: B3 was tested. Which binding [2] did it give?
A: binds

Q: And the binding [3]?
A: binds

B4: PTPN14 (protein, UniProt Q15678 1-1187)
chain: MPFGLKLRRTRRYNVLSKNCFVTRIRLLDSNVIECTLSVESTGQECLEAVAQRLELRETHYFGLWFLSKSQQARWVELEKPLKKHLDKFANEPLLFFGVMFYVPNVSWLQQEATRYQYYLQVKKDVLEGRLRCTLDQVIRLAGLAVQADFGDYNQFDSQDFLREYVLFPMDLALEEAVLEELTQKVAQEHKAHSGILPAEAELMYINEVERLDGFGQEIFPVKDNHGNCVHLGIFFMGIFVRNRIGRQAVIYRWNDMGNITHNKSTILVELINKEETALFHTDDIENAKYISRLFATRHKFYKQNKICTEQSNSPPPIRRQPTWSRSSLPRQQPYILPPVHVQCGEHYSETHTSQDSIFHGNEEALYCNSHNSLDLNYLNGTVTNGSVCSVHSVNSLNCSQSFIQASPVSSNLSIPGSDIMRADYIPSHRHSAIIVPSYRPTPDYETVMRQMKRGILHTDSQSQSLRNLNIINTHAYNQPEDLVYSQPEMRERHPYTVPYGPQGVYSNKLVSPSDQRNPKNNVVPSKPGASAISHTVSTPELANMQLQGSHNYSTAHMLKNYLFRPPPPYPRPRPATSTPDLASHRHKYVSGSSPDLVTRKVQLSVKTFQEDSSPVVHQSLQEVSEPLTATKHHGTVNKRHSLEVMNSMVRGMEAMTLKSLHLPMARRNTLREQGPPEEGSGSHEVPQLPQYHHKKTFSDATMLIHSSESEEEEEEAPESVPQIPMLREKMEYSAQLQAALARIPNKPPPEYPGPRKSVSNGALRQDQASLPPAMARARVLRHGPAKAISMSRTDPPAVNGASLGPSISEPDLTSVKERVKKEPVKERPVSEMFSLEDSIIEREMMIRNLEKQKMAGLEAQKRPLMLAALNGLSVARVSGREENRVDATRVPMDERFRTLKKKLEEGMVFTEYEQIPKKKANGIFSTAALPENAERSRIREVVPYEENRVELIPTKENNTGYINASHIKVVVGGAEWHYIATQGPLPHTCHDFWQMVWEQGVNVIAMVTAEEEGGRTKSHRYWPKLGSKHSSATYGKFKVTTKFRTDSVCYATTGLKVKHLLSGQERTVWHLQYTDWPDHGCPEDVQGFLSYLEEIQSVRRHTNSMLEGTKNRHPPIVVHCSAGVGRTGVLILSELMIYCLEHNEKVEVPMMLRLLREQRMFMIQTIAQYKFVYQVLIQFLQNSRLI
Q: What does the source list for B4?
A: binding [2]: binds; binding [3]: binds

B5: TXNL1 (protein, UniProt O43396 1-289)
chain: MVGVKPVGSDPDFQPELSGAGSRLAVVKFTMRGCGPCLRIAPAFSSMSNKYPQAVFLEVDVHQCQGTAATNNISATPTFLFFRNKVRIDQYQGADAVGLEEKIKQHLENDPGSNEDTDIPKGYMDLMPFINKAGCECLNESDEHGFDNCLRKDTTFLESDCDEQLLITVAFNQPVKLYSMKFQGPDNGQGPKYVKIFINLPRSMDFEEAERSEPTQALELTEDDIKEDGIVPLRYVKFQNVNSVTIFVQSNQGEEETTRISYFTFIGTPVQATNMNDFKRVVGKKGESH
Q: With B5 as the molecule, how does the binding [1] read?
A: binds

B6: Periphilin 1 (protein, UniProt Q8NEY8 1-458)
chain: MWSEGRYEYERIPRERAPPRSHPSDGYNRLVNIVPKKPPLLDRPGEGSYNRYYSHVDYRDYDEGRSFSHDRRSGPPHRGDESGYRWTRDDHSASRQPEYRDMRDGFRRKSFYSSHYARERSPYKRDNTFFRESPVGRKDSPHSRSGSSVSSRSYSPERSKSYSFHQSQHRKSVRPGASYKRQNEGNPERDKERPVQSLKTSRDTSPSSGSAVSSSKVLDKPSRLTEKELAEAASKWAAEKLEKSDESNLPEISEYEAGSTAPLFTDQPEEPESNTTHGIELFEDSQLTTRSKAIASKTKEIEQVYRQDCETFGMVVKMLIEKDPSLEKSIQFALRQNLHEIESAGQTWQQVPPVRNTEMDHDGTPENEGEETAQSAPQPPQAPQPLQPRKKRVRRTTQLRRTTGAPDITWGMLKKTTQEAERILLRTQTPFTPENLFLAMLSVVHCNSRKDVKPENKQ
Q: B6 was tested. Which binding [1] did it give?
A: binds

B7: NSFL1C (protein, UniProt Q9UNZ2 1-370)
chain: MAAERQEALREFVAVTGAEEDRARFFLESAGWDLQIALASFYEDGGDEDIVTISQATPSSVSRGTAPSDNRVTSFRDLIHDQDEDEEEEEGQRFYAGGSERSGQQIVGPPRKKSPNELVDDLFKGAKEHGAVAVERVTKSPGETSKPRPFAGGGYRLGAAPEEESAYVAGEKRQHSSQDVHVVLKLWKSGFSLDNGELRSYQDPSNAQFLESIRRGEVPAELRRLAHGGQVNLDMEDHRDEDFVKPKGAFKAFTGEGQKLGSTAPQVLSTSSPAQQAENEAKASSSILIDESEPTTNIQIRLADGGRLVQKFNHSHRISDIRLFIVDARPAMAATSFILMTTFPNKELADESQTLKEANLLNAVIVQRLT
Q: How did the binding [1] turn out when B7 was run?
A: binds
